# In PubChem BioAssay AID1347423 (Functional Genomics Laboratory (NCATS/FGL), 2020):
# Hit rate of the full screen: of about 52,000 sequences, about 210 (0.4%) were called active.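 Rule for the calls: active = gene whose silencing raises cell survival under the drug, median off-target-corrected z-score across its silencing RNAs 2 or more; inactive = the rest.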 The list shows a part of the results.
# Test: Resistance to Poly (ADP-Ribose) Polymerase inhibitor: Gene Identification via Genome-wide siRNA Screen
# Details: mouse BRCA2 R2336H ES cells, olaparib, CellTiter-Glo viability; stronger effect = higher value
# Outline: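 Mouse BRCA2 R2336H ES cells were reverse-transfected with siRNA (20 nM final), treated at 48 h with 500 nM olaparib, and read by CellTiter-Glo after 72 h. Scores: MAD-based z per siRNA, median per gene, seed off-target correction.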
row,Sequence,z-score
1,GGAUCAAAUGAAGAGGGAATT against C230094B15Rik,inactive: -0.666
2,GGAACCCUAUAUCUAGCAATT against Olfr114,inactive: 0.483
3,GCCUAUCUAAUAUACAACGTT against Dnase2b,inactive: 0.435
4,GCUGAACGAGCAAUUGAGATT against 4932702K14Rik,inactive: 1.73
5,GGAAAACGGACUAUUGUCCTT against Phf13,inactive: 0.975
6,CCUUUCCAAACACCUAUAATT against Sox6,inactive: 0.421
7,GGAUUUACAUCCAUUGUUGTT against Otoa,inactive: 0.958
8,GCUCCAUGAAACCCACUCUTT against BC065120,inactive: -1.77
9,GCGCACACCCUACUUGAUUTT against Pcdh20,inactive: -0.363
10,CGCAUGAUGUGGGUUCUGUTT against 5730578N08Rik,inactive: 0.00907
11,GGCAGGUAAUUUUGAAUGUTT against Lemd2,inactive: -0.291
12,GCGAGCUGAACAAAUGGUCTT against Cyp24a1,inactive: 0.919
13,CGGGCAUUUACGAAUCAAGTT against Lmln,inactive: 1.5
14,GGUAAACUACGAAGAGUUUTT against Calm2,inactive: 1.79
15,GGGAGUCUGUAGAAGGUUCTT against BC034054,inactive: -0.611
16,GGUCAAUGAACCAUCCCACTT against Padi6,inactive: 1.58
17,GGUUGAUCUAAUGAUUGUGTT against 2810027O19Rik,inactive: -1.42
18,CCUCUGUCUAAGAUCAGUUTT against Trpm2,inactive: -1.59
19,GGAAGACUUGUUCAACUGGTT against Grwd1,inactive: 0.0881
20,GGAAAUGUUAAGUGCCUUGTT against Mrpl53,inactive: -1.77
21,CGAUGAAGUAUCAAUUAGATT against Usp1,inactive: 0.891
22,GGGAAAGUUGGAGAGUACGTT against Hoxa1,inactive: 0.592
23,GCCGCUAACUAAAGUCAAATT against Aloxe3,inactive: 1.08
24,GAACGUGCAGCUGACAGAGTT against Ppp1ca,inactive: 1.29
25,CCUCAGGUAUCCCGCUUUATT against Stk24,inactive: 2.1
26,GUGAAAAAAUACAUGACCCTT against V1rc32,inactive: 0.792

row,Sequence,z-score
1,GGGCCAAGCAAUUUGGUAGTT against S100a14,inactive: -0.843
2,GCAGGGCCUCUGUUUUUUATT against 1190005I06Rik,inactive: -0.744
3,GGUUCGAUGUCCAGUCACUTT against Ppp2ca,inactive: -2.1
4,GGGAGGCAUAGUCAAAUUGTT against 4931419P11Rik,inactive: 1.33
5,CCGUUUCAGUCAAAUCCAUTT against Arid4b,inactive: -0.886
6,GGGUUUUCCAUGAUCUAUUTT against Nup188,inactive: -0.761
7,CGUGUUUAGGAAAAAUUGUTT against 2510039O18Rik,inactive: 1.32
8,GGGAAAUGCUUCUAAAAAUTT against Pcdhb11,inactive: 0.548
9,GGACCAAACCUAUCAAAAATT against BC020184,inactive: -0.0206
10,GGCCAUAACGAAGGAUGAATT against Cdv3,inactive: -1.04
11,CCAGCAAAAAUCGAUACUUTT against Plcg2,inactive: -0.123
12,GGCUCCACCGACUUUGUCUTT against LOC226169,inactive: 0.446
13,GCUUUUUCUGGAAACAGCUTT against Gpr89,inactive: -0.438
14,GGCAUAUACACAAUUGAUATT against 2810429K17Rik,inactive: 0.759
15,CCAAGCAUUCGAGUAUGUUTT against Ctsj,inactive: -0.942
16,GCACUCUUUUGUGCCACUUTT against Adora3,inactive: 0.447
17,CGUGAAUGACGACCCUCUATT against Zfp456,inactive: -1.68
18,CCUUGGAAUGCAUAGCCAATT against Sdk1,inactive: -0.0704
19,GGACUCCAACCACACUAUCTT against Rab4b,inactive: -0.047
20,GGGAAGAAAUCCAAGAAGATT against 1600025D17Rik,inactive: -0.109
21,GGGAGAUGUCUUACACAUGTT against Fkbp2,inactive: -0.967
22,GCCUGCCUUGGAAAAGUCATT against Akr1c13,inactive: -1.64
23,GGAACAACUCUUAUGUAUUTT against B3gat1,inactive: 0.223
24,GGCCACUGAUCAACUAAAGTT against Zfp110,inactive: 0.516
25,CCCUAAUCUGGUGAACGAUTT against Mfap5,inactive: -0.108
26,GGUUCACGAGCUAAGCUGUTT against Sec23b,inactive: -0.377

# Some of the entries so far, as tab-separated lines:
row	Sequence	z-score
24	GGCCACUGAUCAACUAAAGTT against Zfp110	inactive: 0.516
25	CCCUAAUCUGGUGAACGAUTT against Mfap5	inactive: -0.108
26	GGUUCACGAGCUAAGCUGUTT against Sec23b	inactive: -0.377

# Next records:

row,Sequence,z-score
1,CCACUACUAGAAUCCUAAATT against Sdc3,inactive: 1.74
2,GCACUGGAAUCAAACCAUCTT against Ppp2r5b,active: 2.45
3,GUCUUCUUACCCUACUGUGTT against Olfr1178,inactive: -1.81
4,GCAGAUCUCUUACGUCAUCTT against Adam9,inactive: 0.749
5,GCAACCACUGUGGUGAUUGTT against Lincr,inactive: 0.778
6,GGCUUUUUCUCACCAGCACTT against Sin3a,inactive: -1.8
7,GGUGGUAAAGACGAUUGGCTT against Vil2,inactive: -1.52
8,CCAUCCUGGGACUUAUCUGTT against Olfr447,inactive: 0.315
9,GGAAGCCAUUGGGUUAAGCTT against Gpr141,inactive: 0.962
10,GGACUCUACUAGGAAUAAATT against Col16a1,inactive: 1.31
11,GGAAUUCAGCAGUCAACUGTT against Krt1-15,inactive: 1.73
12,GCUGACCUAUUCUGAUCCATT against Chchd4,inactive: -0.557
13,GGUACAGAUUCUUGUGGACTT against Bace2,inactive: 0.318
14,CGCGGGAUGAAGGAUAUAATT against LOC432589,inactive: -2.23
15,GGUGGAGAUCAAACCAGAGTT against Rps15,inactive: -3.39
16,GCAACUUGUCAGAUGUUUCTT against Trpm7,inactive: -0.603
17,GGACUUUUCAUUUGAAGCATT against Nola1,inactive: -2.5
18,ACUUCUGGCUCCGUUAAGGTT against 2410039E07Rik,inactive: 0.125
19,GGAGCACUUAGAUGACUAUTT against Skil,inactive: -0.961
20,GGAAAAACCAAAUUUACCATT against 1810003N24Rik,inactive: 0.0612
21,GCCAUUAUUGGAGCUGGCATT against Olfr105,inactive: -1.38
22,GGUGAGAAUGUGCUUCAAUTT against Egr2,inactive: -0.181
23,GGACAUGUACACCUUUGAUTT against BC027073,inactive: -0.905
24,CCUUCAUUAACAGACUACUTT against Miz1,inactive: -0.949
25,GGACUUCCAGAUCCAACCUTT against Robo4,inactive: -0.311
26,GGUGUUUGAAAAGAAGAACTT against 1110063G11Rik,inactive: -0.602

# Given as tab-separated lines: entries from further up
row	Sequence	z-score
12	GCGAGCUGAACAAAUGGUCTT against Cyp24a1	inactive: 0.919
13	CGGGCAUUUACGAAUCAAGTT against Lmln	inactive: 1.5
14	GGUAAACUACGAAGAGUUUTT against Calm2	inactive: 1.79
15	GGGAGUCUGUAGAAGGUUCTT against BC034054	inactive: -0.611

# The results go on.

row,Sequence,z-score
1,GCGGUUAACAGGCAUGCGATT against 4921531G14Rik,inactive: 0.564
2,GGGCUCUUUUUCUAGGAAATT against AW121567,inactive: 1.75
3,GGGAGAGGCCUUUUGAAUGTT against 2610029D06Rik,inactive: -1.2
4,GGAAGAUCUGUACUACGGGTT against Bsnd,inactive: -0.981
5,GGGUUUCCUACAGAGUACCTT against 9430069J07Rik,inactive: 1.42
6,GGUGGAUGUCUUCUUCAACTT against Gata2,inactive: -0.486
7,GGAGGAAAUCAGAGAGAGGTT against D330024H06Rik,inactive: -1.56
8,GCAAGUGCUCCAAUCUUGCTT against Ccl5,inactive: 1.34
9,CUCUAUCUCAUUGCAGUCCTT against Olfr671,inactive: 0.574
10,CGUGUUUCAGGUUUCUAUUTT against MGC59240,inactive: -0.646
11,GCAGUCUUCUUAGCUAUAATT against 9430065N20Rik,inactive: -1.92
12,CCAUGGAAUCUCCUAUACCTT against C4bp,inactive: 0.044
13,GCACUUAACAGAAUGAAUUTT against Alg2,inactive: 0.163
14,GCGGAUAUGAAGGACAUGCTT against 4933433P14Rik,inactive: 0.287
15,GGAGAAAUGUUGUUGUCUUTT against Kcng3,inactive: -0.837
16,GGCAUUGAUCACUGACAGCTT against 9530077C05Rik,inactive: 0.686
17,CGUUUUACCACCGUGUGCUTT against Gfra1,inactive: 0.4
18,GGCUUGACUCCAAGACUGUTT against Mtch2,inactive: -0.0367
19,CGAGUGUUAGAUGCUAAAATT against Lamc2,inactive: 0.221
20,CCGAAUGAUCACUCAAACUTT against Rbms1,inactive: 2.36
21,GGCACUGUUCUCAUCUGUGTT against Olfr736,inactive: -0.252
22,GGCAAAGCAACUUUAUGAATT against 1100001A21Rik,inactive: -0.499
23,GGCCUGCACGAAUGAGUUUTT against Ube3a,inactive: 1.26
24,GGAUCAAGGAGGAUUUCAATT against 5430420C16Rik,inactive: -1.36
25,GCUAGUGCUUAUUACGAUUTT against Fut4,inactive: -0.0897
26,CCAUCUUGGGUUCUGGUCATT against BC057627,active: -0.312
